Results: article PMC3567102
Results are given in words; binding and its absence hold for the method and conditions named.

Sequences of proteins named here, by UniProt entry; tags and fusion partners are left off. Residues count along the entry.
UniProt P02769, residues 25-607: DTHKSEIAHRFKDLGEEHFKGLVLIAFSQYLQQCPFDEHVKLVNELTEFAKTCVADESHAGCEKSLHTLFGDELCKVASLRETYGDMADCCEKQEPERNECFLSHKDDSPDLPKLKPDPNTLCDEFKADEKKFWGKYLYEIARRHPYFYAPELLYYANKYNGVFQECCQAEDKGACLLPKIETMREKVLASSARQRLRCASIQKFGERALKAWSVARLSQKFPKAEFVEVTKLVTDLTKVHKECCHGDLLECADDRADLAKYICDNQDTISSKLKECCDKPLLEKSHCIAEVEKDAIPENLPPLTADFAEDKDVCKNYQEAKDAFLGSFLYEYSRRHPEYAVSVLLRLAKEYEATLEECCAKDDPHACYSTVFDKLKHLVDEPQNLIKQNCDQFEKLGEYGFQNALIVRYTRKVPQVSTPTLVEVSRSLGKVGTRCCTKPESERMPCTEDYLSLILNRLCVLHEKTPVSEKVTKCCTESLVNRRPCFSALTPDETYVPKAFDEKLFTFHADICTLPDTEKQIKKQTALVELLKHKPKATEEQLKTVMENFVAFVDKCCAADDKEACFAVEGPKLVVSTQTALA
UniProt Q775D6: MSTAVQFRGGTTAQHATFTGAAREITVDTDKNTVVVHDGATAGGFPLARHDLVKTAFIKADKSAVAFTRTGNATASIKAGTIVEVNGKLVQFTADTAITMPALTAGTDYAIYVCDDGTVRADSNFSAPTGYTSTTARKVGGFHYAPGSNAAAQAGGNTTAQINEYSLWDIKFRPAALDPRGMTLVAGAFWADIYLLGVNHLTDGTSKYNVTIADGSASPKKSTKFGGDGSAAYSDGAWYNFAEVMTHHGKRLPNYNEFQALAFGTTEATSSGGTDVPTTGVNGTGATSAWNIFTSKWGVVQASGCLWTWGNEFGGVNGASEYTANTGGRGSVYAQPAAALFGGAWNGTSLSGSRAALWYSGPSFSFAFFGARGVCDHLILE

How the values were obtained:
BSA (bovine) = BSA (bovine) (UniProt P02769); assay: condition: 1 µM in the methods; concentrations on the X-axis of Figure 3A; ELISA; target proteins coated on Maxisorp plates (200 nM, pH 9.6), blocked with 0.2% non-fat milk in PBS; Mtd-GST fusion proteins in blocking buffer for 1 h; detected with polyclonal rabbit anti-Mtd and HRP-conjugated anti-rabbit antibody; both purified
ovalbumin = ovalbumin (UniProt P01012); assay: as above

## wild-type Mtd (major tropism determinant), Mtd-GST fusion protein (from UniProt Q775D6 1-381)
BSA (bovine)
  binding: no binding
ovalbumin
  binding: no binding
